Data as given in the supplement of paper PMC5393889.
The list shows a part of the results.

test system: Caenorhabditis elegans N2; assay: aldicarb interaction hit call (worm growth perturbed in combination with 10 uM aldicarb in both replicates, no effect as single agent) (binary (1 = interacts)); higher = interacts with aldicarb (growth perturbed); details: first compound 1.5 µM; aldicarb concentration 10 µM; 6 days; 20 °C

| SMILES | aldicarb interaction hit call |
| --- | --- |
| COc1ccc(OCc2ccc(Cl)cc2)cc1 [wact-102] + CNC(=O)O/N=C/C(C)(C)SC [aldicarb] | inactive: 0 |
| CC(C)CN1CCC(CN(C)Cc2nc(-c3ccc(C(F)(F)F)cc3)no2)CC1 [wact-237] + CNC(=O)O/N=C/C(C)(C)SC [aldicarb] | inactive: 0 |
| CC(CCn1cccn1)NC(=O)c1csc2nc(-c3ccc(C(F)(F)F)cc3)cn12 (stereo not given) [wact-289] + CNC(=O)O/N=C/C(C)(C)SC [aldicarb] | inactive: 0 |
| Nc1nc(SCc2ccccc2)ns1 [wact-597] + CNC(=O)O/N=C/C(C)(C)SC [aldicarb] | inactive: 0 |
| CCc1ccc(C(=O)Nc2ccc(N3CCN(C)CC3)c(Cl)c2)cc1 [wact-150] + CNC(=O)O/N=C/C(C)(C)SC [aldicarb] | inactive: 0 |
| COc1c(Cl)cnn(-c2cccc(C)c2)c1=O [wact-409] + CNC(=O)O/N=C/C(C)(C)SC [aldicarb] | inactive: 0 |
| Clc1ccc(-c2cnnc(N3CCC(c4ccncc4)CC3)n2)cc1 [wact-273] + CNC(=O)O/N=C/C(C)(C)SC [aldicarb] | inactive: 0 |
| c1ccc(C2CCC(N3CCN(c4ccccc4)CC3)CC2)cc1 (stereo not given) [wact-48] + CNC(=O)O/N=C/C(C)(C)SC [aldicarb] | inactive: 0 |
| CSc1ccccc1C(=O)NCc1ccc(F)cc1 [wact-563] + CNC(=O)O/N=C/C(C)(C)SC [aldicarb] | inactive: 0 |
| c1ccc(CSc2nnc(-c3ccccc3)o2)cc1 [wact-38] + CNC(=O)O/N=C/C(C)(C)SC [aldicarb] | inactive: 0 |

In another format: results already given
SMILES,aldicarb interaction hit call
CSc1ccccc1C(=O)NCc1ccc(F)cc1 [wact-563] + CNC(=O)O/N=C/C(C)(C)SC [aldicarb],inactive: 0
c1ccc(CSc2nnc(-c3ccccc3)o2)cc1 [wact-38] + CNC(=O)O/N=C/C(C)(C)SC [aldicarb],inactive: 0
